What all share (assay): affinity purification with mass spectrometry; lysate of seedlings and inflorescences of transgenic Arabidopsis expressing the tagged bait; 50 mM Tris-HCl pH 7.5, 150 mM NaCl, 5 mM MgCl2, 10% glycerol, 0.1% NP-40; anti-Flag M2 agarose 2.5 h at 4 °C, five washes, elution with 3×Flag peptide, gel bands analysed by mass spectrometry
Test [1] has as its target HDC1 (Arabidopsis thaliana) (UniProt F4KB26).
Test [2] deals with MSI1 (Arabidopsis thaliana) (UniProt O22467).
The target in test [3] is T1, RPD3-type histone deacetylase HDA19 (Arabidopsis thaliana) (UniProt O22446).
T1 sequence: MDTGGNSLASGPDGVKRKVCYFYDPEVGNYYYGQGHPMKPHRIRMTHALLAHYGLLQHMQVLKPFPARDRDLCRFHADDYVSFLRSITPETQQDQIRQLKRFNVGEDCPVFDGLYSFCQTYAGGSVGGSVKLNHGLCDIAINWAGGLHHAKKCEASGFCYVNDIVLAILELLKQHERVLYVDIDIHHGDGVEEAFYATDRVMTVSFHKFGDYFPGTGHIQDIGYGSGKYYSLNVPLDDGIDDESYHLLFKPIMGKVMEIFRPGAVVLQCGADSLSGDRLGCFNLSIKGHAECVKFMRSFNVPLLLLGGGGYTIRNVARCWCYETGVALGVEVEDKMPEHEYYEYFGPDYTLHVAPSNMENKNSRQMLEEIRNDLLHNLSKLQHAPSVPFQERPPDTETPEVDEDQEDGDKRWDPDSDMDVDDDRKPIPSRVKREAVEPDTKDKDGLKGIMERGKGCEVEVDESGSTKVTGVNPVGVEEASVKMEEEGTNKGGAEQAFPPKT

Protein sequences, listed by entry. Tags and fused reporters are not part of them. Lines headed by an entry give the natural chain unless they say otherwise; changes in a name come on top.
UniProt O22467: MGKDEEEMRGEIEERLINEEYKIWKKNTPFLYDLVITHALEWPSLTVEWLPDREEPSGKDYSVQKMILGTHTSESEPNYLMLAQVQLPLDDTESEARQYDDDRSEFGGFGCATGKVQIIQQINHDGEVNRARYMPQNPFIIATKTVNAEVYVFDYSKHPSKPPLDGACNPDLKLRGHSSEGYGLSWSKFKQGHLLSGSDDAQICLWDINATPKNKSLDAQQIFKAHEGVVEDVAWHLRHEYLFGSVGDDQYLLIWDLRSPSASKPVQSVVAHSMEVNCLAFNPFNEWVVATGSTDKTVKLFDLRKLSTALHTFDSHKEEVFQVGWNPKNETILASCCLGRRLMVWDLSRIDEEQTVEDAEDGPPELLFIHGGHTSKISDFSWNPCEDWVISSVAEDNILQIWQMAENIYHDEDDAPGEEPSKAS
UniProt O48686: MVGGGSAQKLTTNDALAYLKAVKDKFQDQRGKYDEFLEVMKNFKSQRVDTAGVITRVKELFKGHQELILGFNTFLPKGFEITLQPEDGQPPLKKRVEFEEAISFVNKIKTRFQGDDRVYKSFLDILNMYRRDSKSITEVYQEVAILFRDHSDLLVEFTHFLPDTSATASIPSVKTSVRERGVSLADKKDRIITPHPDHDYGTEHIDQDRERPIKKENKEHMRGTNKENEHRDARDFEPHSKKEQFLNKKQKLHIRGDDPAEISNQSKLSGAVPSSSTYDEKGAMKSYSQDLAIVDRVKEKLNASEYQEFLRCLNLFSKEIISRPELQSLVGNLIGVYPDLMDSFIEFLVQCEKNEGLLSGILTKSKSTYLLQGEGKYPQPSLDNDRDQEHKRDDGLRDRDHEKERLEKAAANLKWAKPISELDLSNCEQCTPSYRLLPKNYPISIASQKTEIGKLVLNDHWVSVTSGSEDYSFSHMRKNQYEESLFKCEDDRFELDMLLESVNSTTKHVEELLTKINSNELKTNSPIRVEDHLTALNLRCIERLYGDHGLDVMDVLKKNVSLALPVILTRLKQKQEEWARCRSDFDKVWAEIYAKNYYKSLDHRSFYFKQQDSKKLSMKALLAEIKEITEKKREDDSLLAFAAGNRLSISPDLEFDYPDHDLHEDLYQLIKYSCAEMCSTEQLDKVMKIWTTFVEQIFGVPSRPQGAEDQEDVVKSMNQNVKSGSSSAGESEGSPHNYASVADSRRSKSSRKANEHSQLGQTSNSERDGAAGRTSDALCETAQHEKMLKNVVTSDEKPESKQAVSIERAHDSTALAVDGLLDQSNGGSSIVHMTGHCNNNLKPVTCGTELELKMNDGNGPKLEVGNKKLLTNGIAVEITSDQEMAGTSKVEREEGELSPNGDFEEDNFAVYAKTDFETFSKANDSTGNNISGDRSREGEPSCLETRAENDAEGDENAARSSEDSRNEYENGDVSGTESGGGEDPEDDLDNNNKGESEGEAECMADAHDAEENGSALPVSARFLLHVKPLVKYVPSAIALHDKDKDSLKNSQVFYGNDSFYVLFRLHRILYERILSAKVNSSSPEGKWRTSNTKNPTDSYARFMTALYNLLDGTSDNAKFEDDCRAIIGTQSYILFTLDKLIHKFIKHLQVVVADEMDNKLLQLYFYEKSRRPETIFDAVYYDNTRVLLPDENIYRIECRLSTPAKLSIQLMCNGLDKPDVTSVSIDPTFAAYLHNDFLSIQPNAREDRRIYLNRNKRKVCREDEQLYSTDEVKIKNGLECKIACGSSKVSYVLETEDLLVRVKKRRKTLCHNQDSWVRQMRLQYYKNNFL
UniProt O04539: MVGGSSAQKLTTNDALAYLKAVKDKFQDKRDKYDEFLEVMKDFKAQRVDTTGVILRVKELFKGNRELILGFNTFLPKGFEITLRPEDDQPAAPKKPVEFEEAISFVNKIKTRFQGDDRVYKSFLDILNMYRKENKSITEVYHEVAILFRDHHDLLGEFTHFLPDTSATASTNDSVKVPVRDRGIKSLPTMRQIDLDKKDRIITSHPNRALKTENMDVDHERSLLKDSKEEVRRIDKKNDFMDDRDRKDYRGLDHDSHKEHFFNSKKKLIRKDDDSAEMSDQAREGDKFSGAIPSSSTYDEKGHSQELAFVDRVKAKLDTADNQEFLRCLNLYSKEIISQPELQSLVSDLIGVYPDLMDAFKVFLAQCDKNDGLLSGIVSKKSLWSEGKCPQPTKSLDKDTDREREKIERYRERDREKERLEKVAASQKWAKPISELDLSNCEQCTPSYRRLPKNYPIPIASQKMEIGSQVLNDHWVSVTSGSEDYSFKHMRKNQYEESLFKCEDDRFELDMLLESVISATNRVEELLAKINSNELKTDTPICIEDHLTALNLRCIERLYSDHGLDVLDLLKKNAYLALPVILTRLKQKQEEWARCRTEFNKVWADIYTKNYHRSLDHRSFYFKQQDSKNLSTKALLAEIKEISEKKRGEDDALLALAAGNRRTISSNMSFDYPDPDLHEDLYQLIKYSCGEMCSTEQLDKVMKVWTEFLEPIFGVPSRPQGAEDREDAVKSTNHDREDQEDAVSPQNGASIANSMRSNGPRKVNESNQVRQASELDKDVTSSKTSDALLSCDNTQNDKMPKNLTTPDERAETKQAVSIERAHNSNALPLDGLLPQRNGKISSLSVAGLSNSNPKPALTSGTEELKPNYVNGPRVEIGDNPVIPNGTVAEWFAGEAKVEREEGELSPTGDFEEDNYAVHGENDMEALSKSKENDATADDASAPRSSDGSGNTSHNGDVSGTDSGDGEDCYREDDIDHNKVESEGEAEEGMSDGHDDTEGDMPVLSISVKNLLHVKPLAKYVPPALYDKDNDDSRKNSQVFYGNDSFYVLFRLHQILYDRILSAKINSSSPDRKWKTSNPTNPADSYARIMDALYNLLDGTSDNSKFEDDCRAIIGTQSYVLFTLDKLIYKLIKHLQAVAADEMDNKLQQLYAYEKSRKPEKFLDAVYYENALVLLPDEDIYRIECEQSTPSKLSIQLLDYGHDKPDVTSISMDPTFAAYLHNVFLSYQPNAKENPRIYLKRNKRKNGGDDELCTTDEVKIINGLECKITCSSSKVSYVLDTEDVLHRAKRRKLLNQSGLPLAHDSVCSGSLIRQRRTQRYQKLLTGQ
UniProt Q9XIE1: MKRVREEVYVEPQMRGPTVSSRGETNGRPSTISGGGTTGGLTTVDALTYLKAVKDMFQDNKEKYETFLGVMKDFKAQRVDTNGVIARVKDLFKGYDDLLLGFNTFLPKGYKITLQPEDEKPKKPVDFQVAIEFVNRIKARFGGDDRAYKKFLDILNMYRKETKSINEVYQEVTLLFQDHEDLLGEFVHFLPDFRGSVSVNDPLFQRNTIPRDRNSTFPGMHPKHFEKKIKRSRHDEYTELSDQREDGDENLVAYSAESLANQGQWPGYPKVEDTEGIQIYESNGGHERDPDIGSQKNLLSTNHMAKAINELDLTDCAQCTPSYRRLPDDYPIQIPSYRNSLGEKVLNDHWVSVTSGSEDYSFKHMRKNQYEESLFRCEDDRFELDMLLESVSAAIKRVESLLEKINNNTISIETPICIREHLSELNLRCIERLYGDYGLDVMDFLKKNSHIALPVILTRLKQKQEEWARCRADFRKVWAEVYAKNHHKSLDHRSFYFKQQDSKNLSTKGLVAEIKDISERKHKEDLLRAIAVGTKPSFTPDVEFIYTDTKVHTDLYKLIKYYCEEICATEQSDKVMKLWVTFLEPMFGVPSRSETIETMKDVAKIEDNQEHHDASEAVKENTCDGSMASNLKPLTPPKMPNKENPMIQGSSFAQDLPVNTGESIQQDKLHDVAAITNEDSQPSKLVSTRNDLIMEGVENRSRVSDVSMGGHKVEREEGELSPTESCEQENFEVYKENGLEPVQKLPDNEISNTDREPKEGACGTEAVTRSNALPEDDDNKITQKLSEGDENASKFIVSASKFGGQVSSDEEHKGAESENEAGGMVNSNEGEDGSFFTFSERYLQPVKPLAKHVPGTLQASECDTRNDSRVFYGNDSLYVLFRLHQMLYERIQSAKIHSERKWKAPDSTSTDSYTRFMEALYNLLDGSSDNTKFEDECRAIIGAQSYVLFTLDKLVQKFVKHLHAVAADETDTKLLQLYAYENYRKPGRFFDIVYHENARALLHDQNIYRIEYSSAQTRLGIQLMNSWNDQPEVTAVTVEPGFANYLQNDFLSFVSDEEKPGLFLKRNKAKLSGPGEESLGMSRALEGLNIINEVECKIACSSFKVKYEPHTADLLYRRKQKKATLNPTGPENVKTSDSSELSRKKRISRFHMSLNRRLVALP
UniProt Q9XIK6: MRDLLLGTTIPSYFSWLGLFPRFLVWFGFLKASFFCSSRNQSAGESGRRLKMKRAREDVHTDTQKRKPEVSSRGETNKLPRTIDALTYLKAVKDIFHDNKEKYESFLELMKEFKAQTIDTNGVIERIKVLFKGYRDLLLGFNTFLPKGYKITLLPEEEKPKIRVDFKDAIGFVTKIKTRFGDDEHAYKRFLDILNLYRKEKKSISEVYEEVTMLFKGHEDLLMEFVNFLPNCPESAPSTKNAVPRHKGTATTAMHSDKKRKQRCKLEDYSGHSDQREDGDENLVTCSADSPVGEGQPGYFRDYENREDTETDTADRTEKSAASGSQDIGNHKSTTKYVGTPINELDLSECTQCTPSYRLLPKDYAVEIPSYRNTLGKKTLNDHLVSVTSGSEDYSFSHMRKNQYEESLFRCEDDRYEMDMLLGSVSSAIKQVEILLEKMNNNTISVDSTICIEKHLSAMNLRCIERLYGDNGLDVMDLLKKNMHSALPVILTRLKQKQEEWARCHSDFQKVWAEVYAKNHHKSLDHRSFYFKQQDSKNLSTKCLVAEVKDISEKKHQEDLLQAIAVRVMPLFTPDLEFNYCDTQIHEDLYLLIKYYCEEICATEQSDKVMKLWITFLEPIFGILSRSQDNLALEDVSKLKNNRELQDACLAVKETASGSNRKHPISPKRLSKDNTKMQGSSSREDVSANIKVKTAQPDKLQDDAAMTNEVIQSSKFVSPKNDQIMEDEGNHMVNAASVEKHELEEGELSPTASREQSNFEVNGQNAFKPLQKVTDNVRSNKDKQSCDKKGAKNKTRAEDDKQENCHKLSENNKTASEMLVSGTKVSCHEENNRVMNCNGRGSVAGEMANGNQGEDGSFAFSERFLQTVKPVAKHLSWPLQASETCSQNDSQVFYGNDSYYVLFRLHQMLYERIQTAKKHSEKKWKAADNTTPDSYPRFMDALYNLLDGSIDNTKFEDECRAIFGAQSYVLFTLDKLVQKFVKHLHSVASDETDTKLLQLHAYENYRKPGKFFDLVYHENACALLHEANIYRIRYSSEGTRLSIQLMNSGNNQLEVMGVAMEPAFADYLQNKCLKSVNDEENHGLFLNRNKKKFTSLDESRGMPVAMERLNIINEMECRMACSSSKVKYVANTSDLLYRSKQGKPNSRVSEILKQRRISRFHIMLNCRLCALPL
UniProt F4I0M4: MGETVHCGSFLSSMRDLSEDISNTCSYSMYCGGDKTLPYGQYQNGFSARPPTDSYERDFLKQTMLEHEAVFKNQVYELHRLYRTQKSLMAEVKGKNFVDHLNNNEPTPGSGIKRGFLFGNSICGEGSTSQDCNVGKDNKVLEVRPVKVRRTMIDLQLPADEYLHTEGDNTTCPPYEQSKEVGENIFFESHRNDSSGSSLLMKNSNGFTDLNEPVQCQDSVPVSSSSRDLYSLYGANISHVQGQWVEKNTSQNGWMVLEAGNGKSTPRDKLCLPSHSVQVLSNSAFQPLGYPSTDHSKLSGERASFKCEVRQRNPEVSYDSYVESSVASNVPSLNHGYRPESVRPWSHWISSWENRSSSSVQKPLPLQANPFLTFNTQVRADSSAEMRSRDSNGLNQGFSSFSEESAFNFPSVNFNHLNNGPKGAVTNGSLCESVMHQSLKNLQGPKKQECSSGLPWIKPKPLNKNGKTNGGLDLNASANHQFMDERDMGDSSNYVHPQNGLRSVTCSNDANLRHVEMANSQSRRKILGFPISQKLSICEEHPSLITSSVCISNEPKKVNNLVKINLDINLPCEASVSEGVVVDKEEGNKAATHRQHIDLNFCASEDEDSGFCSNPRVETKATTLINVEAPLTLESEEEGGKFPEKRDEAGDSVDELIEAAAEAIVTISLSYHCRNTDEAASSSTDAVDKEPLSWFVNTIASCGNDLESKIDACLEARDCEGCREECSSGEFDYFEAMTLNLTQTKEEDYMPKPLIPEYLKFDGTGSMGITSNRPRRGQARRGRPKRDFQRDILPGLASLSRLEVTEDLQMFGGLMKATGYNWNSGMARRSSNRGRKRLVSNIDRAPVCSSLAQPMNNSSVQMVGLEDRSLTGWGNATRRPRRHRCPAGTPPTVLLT

The target of test [4] is T2, RPD3-type histone deacetylase HDA6 (Arabidopsis thaliana) (UniProt Q9FML2).
T2 sequence: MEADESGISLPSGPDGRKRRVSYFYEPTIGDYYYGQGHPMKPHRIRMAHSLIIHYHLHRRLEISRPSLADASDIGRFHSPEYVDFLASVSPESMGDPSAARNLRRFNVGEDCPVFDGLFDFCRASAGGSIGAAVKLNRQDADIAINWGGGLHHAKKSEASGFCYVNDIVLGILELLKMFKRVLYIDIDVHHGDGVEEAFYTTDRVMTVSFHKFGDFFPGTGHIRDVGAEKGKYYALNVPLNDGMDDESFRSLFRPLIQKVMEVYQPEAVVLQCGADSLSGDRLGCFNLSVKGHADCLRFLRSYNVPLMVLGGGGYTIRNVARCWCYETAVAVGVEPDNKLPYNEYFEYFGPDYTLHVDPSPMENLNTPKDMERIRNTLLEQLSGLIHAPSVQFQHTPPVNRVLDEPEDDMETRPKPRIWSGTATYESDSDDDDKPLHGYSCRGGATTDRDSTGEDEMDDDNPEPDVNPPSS

Test [5] has as its target SIN3-like protein SNL3 (Arabidopsis thaliana) (UniProt O48686).
For test [6], the target named is SIN3-like protein SNL4 (Arabidopsis thaliana) (UniProt O04539).
Test [7] addresses SIN3-like protein SNL5 (Arabidopsis thaliana) (UniProt Q9XIE1).
For test [8], the target named is SIN3-like protein SNL6 (Arabidopsis thaliana) (UniProt Q9XIK6).
In test [9] the target is HDA19-interacting protein 1 (HDIP1) (Arabidopsis thaliana) (UniProt F4I0M4).
Test [10] has as its target HDA19-interacting protein 2 (HDIP2) (Arabidopsis thaliana) (UniProt Q9FZE6).
The target in test [11] is HDA19-interacting protein 3 (HDIP3) (Arabidopsis thaliana) (UniProt Q9LMG4).

Results are given in words; binding and its absence hold for the method and conditions named. Binding seen in cells or lysates may run through a third protein. Here binding means that the protein was enriched with, or labelled near, the bait; the list need not be complete. For part of these data: No binding means not detected with the bait. For part of these data: Tags and fused reporters may be left off the sequences shown.

From publication PMC12170880 come the findings set out here.

Take “HDA19-interacting protein 1 (HDIP1) (from UniProt F4I0M4)”: the binding entry in test [1] is “binds”; in test [2] it was “binds”; in [3] it was “binds”; in test [4], “no binding”; in test [5], “binds”; in test [6] it was “binds”. Moreover, the binding entry in [7] and in [8] was “binds” each time.
“HDA19-interacting protein 2 (HDIP2) (from UniProt Q9FZE6)”: the binding result in test [1] is on record as “binds”; in test [2], “binds”; in test [3], “binds”; in [4] it was “no binding”; in test [5], “binds”; in test [6] it was “binds”. For the same molecule, the binding result in [7] and in test [8] was “binds” each time.
Consider “HDA19-interacting protein 3 (HDIP3) (from UniProt Q9LMG4)”, for which the binding entry in test [1] was “binds”; in test [2], “binds”; in test [3], “binds”; in [4] it was “no binding”; in test [5], “binds”; in test [6], “binds”. Also, the binding entry in [7] and in test [8] was “binds” throughout.
For the molecule HDC1 (from UniProt F4KB26), the binding entry in [9], in test [10] and in test [11] was “binds” each time.
With MSI1 (from UniProt O22467 1-424), the binding result in [9], in [10] and in test [11] was “binds” each time.
Turning to “SIN3-like protein SNL3 (from UniProt O48686 1-1330)”, the binding result in test [9], in [10] and in test [11] was “binds” throughout.
Take “SIN3-like protein SNL4 (from UniProt O04539 1-1326)”: the binding result in [9], in test [10] and in [11] was “binds” throughout.
“SIN3-like protein SNL5 (from UniProt Q9XIE1 1-1162)”: the binding result in [9], in [10] and in [11] was “binds” each time.
As for “SIN3-like protein SNL6 (from UniProt Q9XIK6 1-1173)”, the binding entry in [9], in test [10] and in test [11] was “binds” in each case.

B1: RPD3-type histone deacetylase HDA19 (enzyme, UniProt O22446 1-501)
chain: MDTGGNSLASGPDGVKRKVCYFYDPEVGNYYYGQGHPMKPHRIRMTHALLAHYGLLQHMQVLKPFPARDRDLCRFHADDYVSFLRSITPETQQDQIRQLKRFNVGEDCPVFDGLYSFCQTYAGGSVGGSVKLNHGLCDIAINWAGGLHHAKKCEASGFCYVNDIVLAILELLKQHERVLYVDIDIHHGDGVEEAFYATDRVMTVSFHKFGDYFPGTGHIQDIGYGSGKYYSLNVPLDDGIDDESYHLLFKPIMGKVMEIFRPGAVVLQCGADSLSGDRLGCFNLSIKGHAECVKFMRSFNVPLLLLGGGGYTIRNVARCWCYETGVALGVEVEDKMPEHEYYEYFGPDYTLHVAPSNMENKNSRQMLEEIRNDLLHNLSKLQHAPSVPFQERPPDTETPEVDEDQEDGDKRWDPDSDMDVDDDRKPIPSRVKREAVEPDTKDKDGLKGIMERGKGCEVEVDESGSTKVTGVNPVGVEEASVKMEEEGTNKGGAEQAFPPKT
Turning to B1, the binding result in [9], in test [10] and in test [11] was “binds” throughout.
